Results reported in patent publication US20190185544A1, “COMPOSITIONS AND METHODS OF MODULATING ABETA PROTEIN” (University of South Florida, priority 2016, published 2019).
Results are given in words; binding and its absence hold for the method and conditions named. For part of these data: In cells and extracts the contact can be indirect. Some binding calls cover weakened binding; strength is not graded here.

Protein sequences, listed by entry. Tags and fused reporters are not part of them. Lines headed by an entry give the natural chain unless they say otherwise; changes in a name come on top. Residues count along the entry.
UniProt P05067: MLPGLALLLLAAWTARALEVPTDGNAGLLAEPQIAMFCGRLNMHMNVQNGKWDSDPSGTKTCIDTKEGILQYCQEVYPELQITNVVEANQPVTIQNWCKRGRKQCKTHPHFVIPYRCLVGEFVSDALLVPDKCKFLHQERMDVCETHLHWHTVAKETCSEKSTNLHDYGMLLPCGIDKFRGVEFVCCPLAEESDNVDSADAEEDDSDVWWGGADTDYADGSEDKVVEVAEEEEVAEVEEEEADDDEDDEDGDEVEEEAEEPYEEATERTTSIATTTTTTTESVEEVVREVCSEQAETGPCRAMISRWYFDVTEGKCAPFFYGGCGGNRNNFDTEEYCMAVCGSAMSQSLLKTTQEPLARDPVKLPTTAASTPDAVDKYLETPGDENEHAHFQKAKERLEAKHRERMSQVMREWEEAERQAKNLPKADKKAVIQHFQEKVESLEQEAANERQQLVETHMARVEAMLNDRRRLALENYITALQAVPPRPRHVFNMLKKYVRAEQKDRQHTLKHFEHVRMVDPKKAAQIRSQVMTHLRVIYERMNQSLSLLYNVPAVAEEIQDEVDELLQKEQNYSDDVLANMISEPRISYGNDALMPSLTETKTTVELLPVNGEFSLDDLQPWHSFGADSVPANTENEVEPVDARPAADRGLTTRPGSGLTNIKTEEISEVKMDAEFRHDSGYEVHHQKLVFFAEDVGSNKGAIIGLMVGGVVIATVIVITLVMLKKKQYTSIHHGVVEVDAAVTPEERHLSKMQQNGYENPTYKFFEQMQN
human wild-type amyloid precursor protein (APPwt) expressed in CHO/APPwt cells: residues 18-770 of P05067
total secreted APP (t-sAPP) in CHO/APPwt conditioned media: residues 18-687 of P05067
human recombinant sAPPβ (rsAPPβ, without Aβ domain): residues 18-671 of P05067

Experiments:
[1] = target: human wild-type amyloid precursor protein (APPwt) expressed in CHO/APPwt cells (human) (UniProt P05067); assay: CHO/APPwt cells treated 2 h; co-IP from cell lysates (6H3B5 or pN-APP), WB
[2] = target: human recombinant sAPPβ (rsAPPβ, without Aβ domain) (human) (UniProt P05067); assay: in vitro incubation (100 nM each, 37 °C, 1 h), IP with 6H3B5, WB
[3] = target: human recombinant sAPPα (rsAPPα) (human) (UniProt P05067); assay: as above
[4] = target: CHO/APPwt cell conditioned medium-derived sAPPα (cmsAPPα) (human) (UniProt P05067); assay: as above
[5] = target: human wild-type amyloid precursor protein (APPwt) expressed in CHO/APPwt cells (human) (UniProt P05067); assay: co-immunoprecipitation with WB; immunofluorescence co-localisation
[6] = target: total secreted APP (t-sAPP) in CHO/APPwt conditioned media (human) (UniProt P05067); assay: CHO/APPwt cells treated 2 h; co-IP from conditioned media (6H3B5 or pN-APP), WB
[7] = target: human wild-type amyloid precursor protein (APPwt) expressed in CHO/APPwt cells (human) (UniProt P05067); assay: immunofluorescence co-localisation on fixed CHO/APPwt cells
[8] = target: human wild-type amyloid precursor protein (APPwt) expressed in CHO/APPwt cells (human) (UniProt P05067); assay: summary of the co-IP and co-localisation experiments of Example 7

Measured: binding

KKKKKKLRVRLASHLRKLRKRLLRDA [6KApoEp (ApoE LDLR binding domain peptide with 6 N-terminal lysines)]
not listed: [8]
binds: all other assays above

LRVRLASHLRKLRKRLLRDA [ApoE LDLR binding domain peptide (ApoEp, apoE residues 133-152)]
binds: [8] | [1] | [5] | [6] | [7]
